These results are taken from patent US6054450A, “Hair-care cosmetic compositions having dandruff formation-suppressing effect” (Pacific Corporation, priority 1997, dated 2000).

The structures appear in SMILES notation.

The data set is described as follows: Adsorption into the head skin, Adhesive Scatch Tape Stripping Method.

Take `[O-]n1ccccc1=S.[O-]n1ccccc1=S.[Zn+2]` [zinc pyrithione, zinc salt of 1-hydroxy-2(1H) pyridinethione]: the “zinc pyrithione detected in tape strippings” value is recorded as “detected at all of the 1st through 5th strippings” (dissolved zinc pyrithione) and “not detected from 2nd stripping” (insoluble zinc pyrithione).
